From publication PMC4741643
Results are given in words; binding and its absence hold for the method and conditions named. A result given as binding can be weak or reduced; the word gives no strength. Tags and fused reporters may be left off the sequences shown.

Target: T1, suppressor of MEK null (sMEK1), full-length human, pGilda fusion (human) (UniProt Q6IN85)
T1 sequence: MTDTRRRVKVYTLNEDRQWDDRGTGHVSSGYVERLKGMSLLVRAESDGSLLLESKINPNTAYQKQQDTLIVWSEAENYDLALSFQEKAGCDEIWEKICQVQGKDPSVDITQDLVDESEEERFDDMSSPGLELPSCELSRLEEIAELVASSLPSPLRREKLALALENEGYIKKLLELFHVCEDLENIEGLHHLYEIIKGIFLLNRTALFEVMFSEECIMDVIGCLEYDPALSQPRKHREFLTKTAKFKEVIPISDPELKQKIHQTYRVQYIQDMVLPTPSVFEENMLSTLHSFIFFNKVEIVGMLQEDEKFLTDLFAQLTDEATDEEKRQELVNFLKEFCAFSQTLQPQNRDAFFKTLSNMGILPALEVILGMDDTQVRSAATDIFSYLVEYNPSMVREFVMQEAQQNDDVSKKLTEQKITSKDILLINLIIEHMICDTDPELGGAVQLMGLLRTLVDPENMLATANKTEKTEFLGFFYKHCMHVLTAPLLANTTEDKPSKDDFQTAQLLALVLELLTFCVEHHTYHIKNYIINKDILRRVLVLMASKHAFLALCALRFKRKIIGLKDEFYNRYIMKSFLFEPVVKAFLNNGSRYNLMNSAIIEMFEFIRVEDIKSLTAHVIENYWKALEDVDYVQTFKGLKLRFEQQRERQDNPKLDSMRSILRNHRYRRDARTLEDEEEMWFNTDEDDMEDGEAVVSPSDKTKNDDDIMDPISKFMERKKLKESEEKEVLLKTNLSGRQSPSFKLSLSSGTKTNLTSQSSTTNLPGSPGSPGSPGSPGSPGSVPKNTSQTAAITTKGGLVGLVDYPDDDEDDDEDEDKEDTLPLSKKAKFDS
Assay: two-hybrid; EGY48 yeast cells; pGilda-sMEK1 as bait, pJG4-5 fusions as prey; growth on medium lacking leucine, blue colonies on X-gal plates with 2% galactose, β-galactosidase activity with ONPG

binding: binds
Substance: VEGFR-2 truncated fragment Leu801-Leu1000, pJG4-5 fusion (human) (domain or fragment)
